Source: publication PMC10462132

Biological target: CdxB (Caulobacter crescentus)
Experiment: two-hybrid; bacterial two-hybrid: fusions to T25 and T18c fragments of adenylate cyclase co-expressed in E. coli BTH101, 0.5 mM IPTG, 30°C; lacZ reporter, β-galactosidase activity in Miller units (and X-gal plates)

binding: binds
Substance: CdxA (from UniProt A0A0H3C2L6)

These are yes or no findings as the source states them, for the method shown. Binding can be weak; no strength is given.
